These are yes or no findings as the source states them, for the method shown. In cells and extracts the contact can be indirect. These calls come from enrichment with a bait or labelling near it, and not all partners need be listed.
Biological target: T1, TOPK, bait of the mass spectrometry identification of interaction proteins (UniProt Q96KB5)
T1 sequence: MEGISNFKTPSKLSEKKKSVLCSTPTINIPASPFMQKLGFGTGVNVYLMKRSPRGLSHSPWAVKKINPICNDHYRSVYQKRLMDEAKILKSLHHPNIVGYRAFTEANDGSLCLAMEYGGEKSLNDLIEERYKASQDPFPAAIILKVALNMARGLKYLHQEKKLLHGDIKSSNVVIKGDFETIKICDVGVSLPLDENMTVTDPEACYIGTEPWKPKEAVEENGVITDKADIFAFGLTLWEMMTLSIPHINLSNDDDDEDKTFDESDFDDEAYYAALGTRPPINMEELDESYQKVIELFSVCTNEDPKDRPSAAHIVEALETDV
Assay: affinity purification with mass spectrometry; silver staining and mass spectrometry of TOPK interaction proteins; cells and bait construct not told

Protein sequences, listed by entry. Tags and fused reporters are not part of them.
UniProt P19474: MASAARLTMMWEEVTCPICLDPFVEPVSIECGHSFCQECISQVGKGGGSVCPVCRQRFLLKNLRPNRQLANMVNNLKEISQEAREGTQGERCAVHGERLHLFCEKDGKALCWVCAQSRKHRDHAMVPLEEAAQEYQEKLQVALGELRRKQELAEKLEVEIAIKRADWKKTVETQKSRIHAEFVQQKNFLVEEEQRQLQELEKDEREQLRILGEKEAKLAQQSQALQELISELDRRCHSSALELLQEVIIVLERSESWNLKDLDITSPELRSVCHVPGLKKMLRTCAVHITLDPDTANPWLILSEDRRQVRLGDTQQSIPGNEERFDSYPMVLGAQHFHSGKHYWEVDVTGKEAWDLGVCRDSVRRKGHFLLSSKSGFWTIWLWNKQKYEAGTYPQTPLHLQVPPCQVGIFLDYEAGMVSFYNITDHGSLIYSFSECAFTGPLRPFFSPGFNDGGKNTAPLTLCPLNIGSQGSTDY
UniProt P60842: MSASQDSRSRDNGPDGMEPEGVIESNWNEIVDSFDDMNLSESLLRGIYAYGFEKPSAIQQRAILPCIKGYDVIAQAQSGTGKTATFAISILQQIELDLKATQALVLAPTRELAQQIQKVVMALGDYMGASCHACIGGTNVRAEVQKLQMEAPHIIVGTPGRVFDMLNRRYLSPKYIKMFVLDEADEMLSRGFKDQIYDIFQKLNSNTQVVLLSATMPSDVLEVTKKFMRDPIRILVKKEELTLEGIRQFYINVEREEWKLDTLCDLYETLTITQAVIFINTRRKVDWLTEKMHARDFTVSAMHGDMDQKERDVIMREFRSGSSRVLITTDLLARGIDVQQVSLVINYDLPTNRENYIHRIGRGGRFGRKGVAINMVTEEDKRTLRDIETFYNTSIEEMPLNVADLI

TRIM21 (from UniProt P19474 1-475)
binding: binds

eIF4A1, endogenous (from UniProt P60842 1-406) (enzyme)
binding: binds

From article PMC12955895
